Test results taken from article PMC4648529.
Results are given in words; binding and its absence hold for the method and conditions named. In cells and extracts the contact can be indirect. Some binding calls cover weakened binding; strength is not graded here.

The chains behind the UniProt entries cited, without tags or fusion partners.
UniProt P62491: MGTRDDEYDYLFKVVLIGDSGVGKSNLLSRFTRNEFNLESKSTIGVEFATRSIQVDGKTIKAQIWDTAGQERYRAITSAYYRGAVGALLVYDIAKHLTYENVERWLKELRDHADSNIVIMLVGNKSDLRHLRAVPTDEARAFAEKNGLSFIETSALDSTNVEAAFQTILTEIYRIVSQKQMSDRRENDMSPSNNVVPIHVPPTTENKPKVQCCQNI
UniProt P03431: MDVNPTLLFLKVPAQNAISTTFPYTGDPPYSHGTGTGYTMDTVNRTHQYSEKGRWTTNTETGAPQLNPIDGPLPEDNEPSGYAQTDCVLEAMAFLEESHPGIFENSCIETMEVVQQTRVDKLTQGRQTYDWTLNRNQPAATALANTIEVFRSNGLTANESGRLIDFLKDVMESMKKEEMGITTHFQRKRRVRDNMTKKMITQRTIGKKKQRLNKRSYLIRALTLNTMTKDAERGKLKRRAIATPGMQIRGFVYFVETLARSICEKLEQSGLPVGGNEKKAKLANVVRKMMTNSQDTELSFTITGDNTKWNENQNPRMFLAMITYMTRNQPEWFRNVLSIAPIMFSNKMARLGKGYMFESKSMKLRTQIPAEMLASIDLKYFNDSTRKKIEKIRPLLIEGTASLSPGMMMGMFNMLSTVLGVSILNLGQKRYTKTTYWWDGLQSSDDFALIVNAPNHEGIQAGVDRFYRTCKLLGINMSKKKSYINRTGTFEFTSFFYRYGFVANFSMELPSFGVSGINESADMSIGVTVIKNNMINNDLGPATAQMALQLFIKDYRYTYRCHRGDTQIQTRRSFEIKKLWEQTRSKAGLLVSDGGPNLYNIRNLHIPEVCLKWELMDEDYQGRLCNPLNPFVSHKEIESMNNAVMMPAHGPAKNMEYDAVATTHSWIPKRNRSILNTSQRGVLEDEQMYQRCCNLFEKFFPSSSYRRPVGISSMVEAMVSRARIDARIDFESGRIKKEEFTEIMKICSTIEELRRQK
UniProt P03466: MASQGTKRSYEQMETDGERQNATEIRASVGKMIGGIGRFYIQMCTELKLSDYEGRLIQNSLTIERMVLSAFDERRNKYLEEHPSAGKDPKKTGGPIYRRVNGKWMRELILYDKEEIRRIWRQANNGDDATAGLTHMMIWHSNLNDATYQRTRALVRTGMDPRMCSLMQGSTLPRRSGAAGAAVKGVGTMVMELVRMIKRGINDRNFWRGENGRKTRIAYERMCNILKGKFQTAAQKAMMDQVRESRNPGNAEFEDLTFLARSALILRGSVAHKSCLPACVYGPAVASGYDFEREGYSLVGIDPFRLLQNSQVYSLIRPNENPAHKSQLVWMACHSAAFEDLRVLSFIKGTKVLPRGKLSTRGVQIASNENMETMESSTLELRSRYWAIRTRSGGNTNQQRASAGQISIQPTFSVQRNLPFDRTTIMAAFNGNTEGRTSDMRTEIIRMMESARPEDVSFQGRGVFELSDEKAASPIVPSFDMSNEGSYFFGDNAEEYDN

How the values were obtained:
[1] = molecular target: HA (wild-type influenza virus) (influenza virus A/Puerto Rico/8/34) (UniProt P03452); assay: proximity ligation
FLAG-Rab11a = FLAG-Rab11a (UniProt P62491); assay: co-IP

| Substance | binding [1] | binding (FLAG-Rab11a) |
| --- | --- | --- |
| M1 (from UniProt P03485 1-252) | binds | – |
| PB1 subunit of viral polymerase (from UniProt P03431 1-757) | – | binds |
| nucleoprotein (NP) (from UniProt P03466 1-498) | – | binds |
